The record followed here is publication PMC5719404.

Test [1] concerns the target T1, Rad11-YFP (Schizosaccharomyces pombe) (UniProt Q92372).
T1 sequence: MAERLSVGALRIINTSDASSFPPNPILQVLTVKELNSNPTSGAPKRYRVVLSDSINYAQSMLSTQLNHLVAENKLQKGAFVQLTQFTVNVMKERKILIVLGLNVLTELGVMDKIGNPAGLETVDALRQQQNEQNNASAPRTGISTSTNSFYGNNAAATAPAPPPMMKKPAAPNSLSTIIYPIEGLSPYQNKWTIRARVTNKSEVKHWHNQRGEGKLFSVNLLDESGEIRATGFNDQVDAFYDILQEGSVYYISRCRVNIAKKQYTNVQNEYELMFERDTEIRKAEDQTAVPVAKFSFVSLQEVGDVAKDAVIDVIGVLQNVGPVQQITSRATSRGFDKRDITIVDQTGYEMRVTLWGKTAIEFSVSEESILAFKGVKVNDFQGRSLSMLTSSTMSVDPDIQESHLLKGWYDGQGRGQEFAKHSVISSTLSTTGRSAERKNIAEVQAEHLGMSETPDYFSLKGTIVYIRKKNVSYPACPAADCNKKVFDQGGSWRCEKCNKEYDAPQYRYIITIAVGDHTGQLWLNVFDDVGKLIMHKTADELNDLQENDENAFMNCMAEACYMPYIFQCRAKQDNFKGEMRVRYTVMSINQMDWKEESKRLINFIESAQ
The experiment in a line: co-IP; S. pombe lysate in EB buffer (50 mM HEPES, 50 mM KOAc pH 7.5, 5 mM EGTA, 1% triton X-100), treated with 250 mU/µl benzonase for 30 min; anti-GFP antibody and Protein G Dynabeads, 4 °C; Pku70-HA detected by anti-HA Western blot. A general note: In western blotting, separated proteins are transferred to a membrane and probed.

The target of test [2] is T2, Ssb3-YFP (Schizosaccharomyces pombe) (UniProt Q92374).
T2 sequence: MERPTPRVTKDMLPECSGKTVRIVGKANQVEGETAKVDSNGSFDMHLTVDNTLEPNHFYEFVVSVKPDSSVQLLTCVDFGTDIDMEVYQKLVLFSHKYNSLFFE
Described as above.

These are yes or no findings as the source states them, for the method shown. In cells and extracts the contact can be indirect. Some binding calls cover weakened binding; strength is not graded here. Where a sequence is shown, tags or fusion partners need not be part of it.

B1: Pku70-HA (protein, UniProt O94395 1-607)
chain: MENDEQIDETENFAIGKYAILFVIEVSPSMLDPVDEFTPSSLQMALICAYQLAAQRVITNPSDIMGVLLYGTESSTGRFANQMMLLDIDPPDAERIKSLQSFEKDFQFSKEKFKPCSCQVSLSSVLYHCSVIFTTKAENFEKRLFLITDNDHPAWDATERDIILQRAKDLRDLDIQVHPVFLDPPTHSFRINIFYSDFLYIVYGRQDVSNLVNRGQAQLQHMLNMITALQKPKRAHFHLKMDLGNDVRIGVEAFILLKRLESAKTNWVYAKGERFAVAVPQSKQVSFATKKELKKDEIRRSYSYGGSSVVFGSDELNKVRSFEPPTLRIIGFRDFSTLKPWHCLKPAVFLRPKDDEIIGSGAVFSAIHKKLLASNKIGIAWFVSRPNANPCFVAMLATPGSIHIRDDFELPLGIFLVQLPTADDIRSLPPINPNPISMPSNLIETMQRILRGMELRSYQPGKYNNPSLQWHYKVLQALALDEEIPTDFVDNTLPKYKAIQKRVGEYMGDVNNIVAEYRNDISDKNGIKEEEEDQGPIVKKARIEKSGKPIFAEDDRLKQLYIEGVLDKEIKALKVSQLKDILRDRGLRVSGKKADLLDNLTNYVKKL
Consider B1, for which the binding entry in test [1] and in test [2] was “binds” each time.
